Results are given in words; binding and its absence hold for the method and conditions named. In cells and extracts the contact can be indirect. Binding calls can cover weak binding; strength is not graded here.
Target: T1, INDUCER OF CBF EXPRESSION 1 (ICE1), BiFC construct (UniProt Q9LSE2)
T1 sequence: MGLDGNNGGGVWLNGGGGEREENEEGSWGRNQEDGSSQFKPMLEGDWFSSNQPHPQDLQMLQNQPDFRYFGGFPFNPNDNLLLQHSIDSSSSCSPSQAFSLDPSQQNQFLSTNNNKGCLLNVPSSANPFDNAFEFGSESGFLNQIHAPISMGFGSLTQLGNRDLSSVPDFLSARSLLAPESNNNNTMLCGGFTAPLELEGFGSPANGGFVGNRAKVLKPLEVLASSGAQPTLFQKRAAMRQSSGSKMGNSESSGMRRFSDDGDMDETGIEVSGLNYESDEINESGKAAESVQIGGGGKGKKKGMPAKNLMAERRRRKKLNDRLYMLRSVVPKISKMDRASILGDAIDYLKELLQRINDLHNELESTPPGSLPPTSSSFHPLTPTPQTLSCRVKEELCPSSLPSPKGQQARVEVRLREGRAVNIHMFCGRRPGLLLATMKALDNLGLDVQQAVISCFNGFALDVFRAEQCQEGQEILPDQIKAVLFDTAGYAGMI
Experiment: split reporter

“U-box-deleted PUB19 (PUB19dU) fused to the C-terminal part of YFP (YFPc) (Arabidopsis) (domain or fragment)” was tested, and the binding was “binds”.
